PubChem BioAssay AID1159578, Peter MacCallum Cancer Centre, 2015
Aim: 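Genome-wide hunt for genes controlling movement of lymphatic endothelial cells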 (primary screen). Cell system: human lymphatic endothelial cells. Reagent: siRNA pool against human genes, 40 nM. Timing: 48 h after transfection. Detection: 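Cells stained with dye and imaged after a scratch; covered wound area and nuclei counted, duplicates averaged, migration set against mock wells and turned into a robust z-score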. Reading the numbers: migration robust z-score: higher = faster migration into the scratch; nuclei per well: higher = more cells in the well. Active means: 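Pools averaging fewer than 3300 nuclei are never called; remaining pools count as changed when migration robust z lies outside -2 to 2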. Calls: active = migration changed; inactive = no migration change, or too few cells.
The whole screen tested about 18,000 reagents; below is a random part of them. Over the whole deposit, about 1,030 (5.7%) got an active call. 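Inactive calls also include pools with fewer than 3300 nuclei, whose migration was not assessed.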 The raw values are shown without normalisation. Further read-outs or replicates are left out here. Reagent sequences are not shown.

migration robust z-score	nuclei per well, duplicate mean	Call	target gene
0	5955	inactive	RAB3C
-0.05	4042	inactive	INTS6
-2.21	5618	active	EN2
0.36	5520	inactive	KLHL40
-0.2	6592	inactive	OR52A5
0.44	5278	inactive	SLC16A11
0.9	4314	inactive	PLEKHA8P1
0.25	5872	inactive	PRCC
1.49	7027	inactive	CNPPD1
0.31	6136	inactive	LHX4
-0.67	5733	inactive	PCDHAC1
0.59	6956	inactive	MED25
-1.06	5594	inactive	NLRP13
-0.36	4166	inactive	HK2
-0.2	4140	inactive	RAB26
-2.44	3294	inactive	SGTA
0.25	5885	inactive	MRPL27
-0.24	5738	inactive	CCL11
-0.22	6200	inactive	ZNF668
-2.66	5942	active	ANKRD13C
1.5	5868	inactive	KIF5C
-1.27	5980	inactive	PAGR1
-0.68	5939	inactive	NXNL2
-0.7	4424	inactive	RAB11B
-0.42	5449	inactive	RNF20
-0.15	5449	inactive	WDR18
-0.12	5380	inactive	TM6SF2
0.62	5690	inactive	DCAF12L1
0.05	4934	inactive	PDGFRL
-0.04	6646	inactive	TAF1C
-0.72	5700	inactive	LRRC24
-0.06	5750	inactive	STXBP1
-0.94	5640	inactive	EIF3E
0.13	5324	inactive	SENP8
-0.27	5369	inactive	CCDC197
1.55	5180	inactive	CALHM1
-0.18	6386	inactive	UMODL1
0.22	5780	inactive	AMPH
-0.92	6356	inactive	SCFD1

Entries listed so far whose target name begins with R or r (4):
migration robust z-score	nuclei per well, duplicate mean	Call	target gene
0	5955	inactive	RAB3C
-0.2	4140	inactive	RAB26
-0.7	4424	inactive	RAB11B
-0.42	5449	inactive	RNF20
